The other results are listed elsewhere or left out.
Legend:
Test in all cases: glycan array binding signal (z-score within array); higher = stronger binding
Conditions in all cases: glycan notation: IUPAC condensed, linker removed
[1] = target: Gal(a1-3)GalNAc
Outline: (§1)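 Glycan array data were curated from 3228 arrays in the Consortium for Functional Glycomics database and kept only where the protein sequence was available. Glycan names were converted to IUPAC-condensed notation, and columns mapping to the same glycan were averaged. The binding signal is a within-array Z-score, averaged across arrays of the same protein sequence at different concentrations or buffers and across linkers. Negative Z-scores can be read as non-binding.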

[2] = target: Gal(a1-3)[Gal(a1-4)]Gal(b1-4)GlcNAc
Outline: as §1

[3] = target: Gal(a1-4)Gal(b1-3)GlcNAc(b1-2)Man(a1-3)[Gal(a1-4)Gal(b1-3)GlcNAc(b1-2)Man(a1-6)]Man(b1-4)GlcNAc(b1-4)GlcNAc
Outline: as §1

[4] = target: Gal(a1-4)Gal(b1-4)Glc
Outline: as §1

[5] = target: Gal(a1-4)Gal(b1-4)GlcNAc
Outline: as §1

[6] = target: Gal(a1-4)Gal(b1-4)GlcNAc(b1-2)Man(a1-3)[Gal(a1-4)Gal(b1-4)GlcNAc(b1-2)Man(a1-6)]Man(b1-4)GlcNAc(b1-4)GlcNAc
Outline: as §1

[7] = target: Gal(a1-4)Gal(b1-4)GlcNAc(b1-3)Gal(b1-4)Glc
Outline: as §1

[8] = target: Gal(a1-4)GlcNAc
Outline: as §1

[9] = target: Gal(a1-6)Glc
Outline: as §1

[10] = target: Gal(b1-2)Gal
Outline: as §1

[11] = target: Gal(b1-3)Gal
Outline: as §1

[12] = target: Gal(b1-3)Gal(b1-4)GlcNAc
Outline: as §1

[13] = target: Gal(b1-3)GalNAc
Outline: as §1

[14] = target: Gal(b1-3)GalNAc(a1-3)[Fuc(a1-2)]Gal(b1-4)Glc
Outline: as §1

[15] = target: Gal(b1-3)GalNAc(a1-3)[Fuc(a1-2)]Gal(b1-4)GlcNAc
Outline: as §1

[16] = target: Gal(b1-3)GalNAc(b1-3)Gal
Outline: as §1

[17] = target: Gal(b1-3)GalNAc(b1-3)Gal(a1-4)Gal(b1-4)Glc
Outline: as §1

[18] = target: Gal(b1-3)GalNAc(b1-4)Gal(b1-4)Glc
Outline: as §1

[19] = target: Gal(b1-3)GalNAc(b1-4)[Neu5Ac(a2-3)]Gal(b1-4)Glc
Outline: as §1

[20] = target: Gal(b1-3)GlcNAc
Outline: as §1

[21] = target: Gal(b1-3)GlcNAc(a1-3)Gal(b1-4)GlcNAc
Outline: as §1

[22] = target: Gal(b1-3)GlcNAc(a1-6)Gal(b1-4)GlcNAc
Outline: as §1

[23] = target: Gal(b1-3)GlcNAc(b1-2)Man
Outline: as §1

[24] = target: Gal(b1-3)GlcNAc(b1-2)Man(a1-3)[Gal(b1-3)GlcNAc(b1-2)Man(a1-6)]Man(b1-4)GlcNAc(b1-4)GlcNAc
Outline: as §1

[25] = target: Gal(b1-3)GlcNAc(b1-2)Man(a1-3)[Gal(b1-3)GlcNAc(b1-2)Man(a1-6)]Man(b1-4)GlcNAc(b1-4)[Fuc(a1-6)]GlcNAc
Outline: as §1

[26] = target: Gal(b1-3)GlcNAc(b1-2)Man(a1-3)[GlcNAc(b1-4)][Gal(b1-3)GlcNAc(b1-2)Man(a1-6)]Man(b1-4)GlcNAc(b1-4)GlcNAc
Outline: as §1

[27] = target: Gal(b1-3)GlcNAc(b1-2)[Gal(b1-3)GlcNAc(b1-6)]Man(a1-6)[Gal(b1-3)GlcNAc(b1-2)Man(a1-3)]Man(b1-4)GlcNAc(b1-4)GlcNAc
Outline: as §1

[28] = target: Gal(b1-3)GlcNAc(b1-3)Gal(b1-3)GlcNAc
Outline: as §1

[29] = target: Gal(b1-3)GlcNAc(b1-3)Gal(b1-4)Glc
Outline: as §1

[30] = target: Gal(b1-3)GlcNAc(b1-3)Gal(b1-4)GlcNAc
Outline: as §1

[31] = target: Gal(b1-3)GlcNAc(b1-3)Gal(b1-4)GlcNAc(b1-2)Man(a1-3)[Gal(b1-3)GlcNAc(b1-3)Gal(b1-4)GlcNAc(b1-2)Man(a1-6)]Man(b1-4)GlcNAc(b1-4)GlcNAc
Outline: as §1

[32] = target: Gal(b1-3)GlcNAc(b1-3)Gal(b1-4)GlcNAc(b1-2)[Gal(b1-3)GlcNAc(b1-3)Gal(b1-4)GlcNAc(b1-6)]Man(a1-6)[Gal(b1-3)GlcNAc(b1-3)Gal(b1-4)GlcNAc(b1-2)Man(a1-3)]Man(b1-4)GlcNAc(b1-4)[Fuc(a1-6)]GlcNAc
Outline: as §1

[33] = target: Gal(b1-3)GlcNAc(b1-3)Gal(b1-4)GlcNAc(b1-3)Gal(b1-4)GlcNAc(b1-2)[Gal(b1-3)GlcNAc(b1-3)Gal(b1-4)GlcNAc(b1-3)Gal(b1-4)GlcNAc(b1-6)]Man(a1-6)[Gal(b1-3)GlcNAc(b1-3)Gal(b1-4)GlcNAc(b1-3)Gal(b1-4)GlcNAc(b1-2)Man(a1-3)]Man(b1-4)GlcNAc(b1-4)[Fuc(a1-6)]GlcNAc
Outline: as §1

[34] = target: Gal(b1-3)GlcNAc(b1-3)Gal(b1-4)GlcNAc(b1-6)[Gal(b1-3)GlcNAc(b1-3)]Gal(b1-4)Glc
Outline: as §1

[35] = target: Gal(b1-3)GlcNAc(b1-3)Gal(b1-4)[Fuc(a1-3)]GlcNAc
Outline: as §1

[36] = target: Gal(b1-3)GlcNAc(b1-3)Gal(b1-4)[Fuc(a1-3)]GlcNAc(b1-6)[Gal(b1-3)GlcNAc(b1-3)]Gal(b1-4)Glc
Outline: as §1

[37] = target: Gal(b1-3)GlcNAc(b1-3)GalNAc
Outline: as §1

[38] = target: Gal(b1-3)GlcNAc(b1-6)Gal(b1-4)GlcNAc
Outline: as §1

B1: AT1G77380(17) (Arabidopsis thaliana), Q39134 (protein)
chain: MVQNHQTVLAVDMPQTGGSKYLDDDGKNKRTGSVWTASAHIITAVIGSGVLSLAWATAQLGWLAGPVVMLLFSAVTYFTSSLLAACYRSGDPISGKRNYTYMDAVRSNLGGVKVTLCGIVQYLNIFGVAIGYTIASAISMMAIKRSNCFHKSGGKDPCHMNSNPYMIAFGLVQILFSQIPDFDQLWWLSILAAVMSFTYSSAGLALGIAQVVVNGKVKGSLTGISIGAVTETQKIWRTFQALGDIAFAYSYSIILIEIQDTVKSPPSEEKTMKKATLVSVSVTTMFYMLCGCMGYAAFGDLSPGNLLTGFGFYNPYWLLDIANAAIVIHLIGAYQVYCQPLFAFIEKQASIQFPDSEFIAKDIKIPIPGFKPLRLNVFRLIWRTVFVIITTVISMLLPFFNDVVGLLGALGFWPLTVYFPVEMYIAQKKIPRWSTRWVCLQVFSLGCLVVSIAAAAGSIAGVLLDLKSYKPFRSEY
- glycan array binding signal (z-score) [1]: 0.76
- glycan array binding signal (z-score) [2]: 3.09
- glycan array binding signal (z-score) [3]: -0.488
- glycan array binding signal (z-score) [4]: 0.279
- glycan array binding signal (z-score) [5]: 1.77
- glycan array binding signal (z-score) [6]: -0.216
- glycan array binding signal (z-score) [7]: 0.103
- glycan array binding signal (z-score) [8]: -0.902
- glycan array binding signal (z-score) [9]: -0.766
- glycan array binding signal (z-score) [10]: 0.081
- glycan array binding signal (z-score) [11]: -0.551
- glycan array binding signal (z-score) [12]: -0.745
- glycan array binding signal (z-score) [13]: -0.583
- glycan array binding signal (z-score) [14]: -0.417
- glycan array binding signal (z-score) [15]: -0.895
- glycan array binding signal (z-score) [16]: -0.955
- glycan array binding signal (z-score) [17]: 0.619
- glycan array binding signal (z-score) [18]: 0.424
- glycan array binding signal (z-score) [19]: -0.62
- glycan array binding signal (z-score) [20]: -0.594
- glycan array binding signal (z-score) [21]: -0.335
- glycan array binding signal (z-score) [22]: 0.828
- glycan array binding signal (z-score) [23]: 0.434
- glycan array binding signal (z-score) [24]: -0.421
- glycan array binding signal (z-score) [25]: 3.2
- glycan array binding signal (z-score) [26]: 0.236
- glycan array binding signal (z-score) [27]: 1.48
- glycan array binding signal (z-score) [28]: -0.204
- glycan array binding signal (z-score) [29]: 0.098
- glycan array binding signal (z-score) [30]: -0.732
- glycan array binding signal (z-score) [31]: -0.644
- glycan array binding signal (z-score) [32]: -0.299
- glycan array binding signal (z-score) [33]: -0.832
- glycan array binding signal (z-score) [34]: 1.9
- glycan array binding signal (z-score) [35]: -0.941
- glycan array binding signal (z-score) [36]: 0.712
- glycan array binding signal (z-score) [37]: -0.416
- glycan array binding signal (z-score) [38]: 0.308

Source: the supplement of paper PMC8728848
